Results are given in words; binding and its absence hold for the method and conditions named. Some entries that bind do so weakly or less than the wild type.

Chains of the proteins cited; added tags and fusions are not shown.
UniProt Q06547, whole entry: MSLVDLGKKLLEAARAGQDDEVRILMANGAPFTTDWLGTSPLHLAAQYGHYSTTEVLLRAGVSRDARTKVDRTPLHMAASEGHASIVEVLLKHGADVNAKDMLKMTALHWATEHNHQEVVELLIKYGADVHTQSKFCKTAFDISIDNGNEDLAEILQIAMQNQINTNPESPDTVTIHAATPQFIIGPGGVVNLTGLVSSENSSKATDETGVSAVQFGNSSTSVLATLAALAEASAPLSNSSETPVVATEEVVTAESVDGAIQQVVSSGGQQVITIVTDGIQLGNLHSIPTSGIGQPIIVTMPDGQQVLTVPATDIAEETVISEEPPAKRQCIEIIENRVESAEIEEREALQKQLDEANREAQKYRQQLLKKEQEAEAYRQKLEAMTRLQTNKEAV

The target in the assay is long isoform of GABPB1 (GABPB1L) (human) (UniProt Q06547). Put plainly: co-purification.

B1: GA binding protein A (GABPA) (protein, UniProt Q06546 1-454)
chain: MTKREAEELIEIEIDGTEKAECTEESIVEQTYAPAECVSQAIDINEPIGNLKKLLEPRLQCSLDAHEICLQDIQLDPERSLFDQGVKTDGTVQLSVQVISYQGIEPKLNILEIVKPADTVEVVIDPDAHHAESEAHLVEEAQVITLDGTKHITTISDETSEQVTRWAAALEGYRKEQERLGIPYDPIQWSTDQVLHWVVWVMKEFSMTDIDLTTLNISGRELCSLNQEDFFQRVPRGEILWSHLELLRKYVLASQEQQMNEIVTIDQPVQIIPASVQSATPTTIKVINSSAKAAKVQRAPRISGEDRSSPGNRTGNNGQIQLWQFLLELLTDKDARDCISWVGDEGEFKLNQPELVAQKWGQRKNKPTMNYEKLSRALRYYYDGDMICKVQGKRFVYKFVCDLKTLIGYSAAELNRLVTECEQKKLAKMQLHGIAQPVTAVALATASLQTEKDN
Regarding B1, the binding entry is recorded as “binds”.

(Values after publication doi:10.1101/2020.04.25.061606.)
